Results are given in words; binding and its absence hold for the method and conditions named.
Target: Cgo2 (ALPR1_12690), bacterial two-hybrid fusion (Algoriphagus machipongonensis) (UniProt A3HTA9)
Experiment: two-hybrid; bacterial two-hybrid (BACTH), T18 and T25 adenylate cyclase fusions at N and C termini in E. coli BTH101; X-gal spot assay and ONPG β-galactosidase assay (Miller units); induction 1.0 mM IPTG, 8 h, 30 °C

For “Cgo1 (ALPR1_12695), bacterial two-hybrid fusion (from UniProt A3HTB0 1-498)”, the binding was “no binding”.

Reference: article PMC8894135
